In article PMC6959235:
Results are given in words; binding and its absence hold for the method and conditions named. Binding seen in cells or lysates may run through a third protein.

Protein sequences, listed by entry. Tags and fused reporters are not part of them. Residues count along the entry.
UniProt Q14457: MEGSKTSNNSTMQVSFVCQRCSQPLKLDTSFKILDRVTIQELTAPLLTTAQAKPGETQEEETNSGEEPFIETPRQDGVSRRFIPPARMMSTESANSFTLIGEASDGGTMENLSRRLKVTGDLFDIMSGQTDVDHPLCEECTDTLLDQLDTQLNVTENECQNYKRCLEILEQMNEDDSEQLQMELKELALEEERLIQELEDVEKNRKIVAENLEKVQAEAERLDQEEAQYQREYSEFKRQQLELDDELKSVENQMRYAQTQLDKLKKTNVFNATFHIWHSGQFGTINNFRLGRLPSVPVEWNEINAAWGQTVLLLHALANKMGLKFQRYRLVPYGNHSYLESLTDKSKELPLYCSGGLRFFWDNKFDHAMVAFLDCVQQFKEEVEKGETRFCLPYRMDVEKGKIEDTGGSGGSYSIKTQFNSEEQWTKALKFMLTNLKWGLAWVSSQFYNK
UniProt O75127: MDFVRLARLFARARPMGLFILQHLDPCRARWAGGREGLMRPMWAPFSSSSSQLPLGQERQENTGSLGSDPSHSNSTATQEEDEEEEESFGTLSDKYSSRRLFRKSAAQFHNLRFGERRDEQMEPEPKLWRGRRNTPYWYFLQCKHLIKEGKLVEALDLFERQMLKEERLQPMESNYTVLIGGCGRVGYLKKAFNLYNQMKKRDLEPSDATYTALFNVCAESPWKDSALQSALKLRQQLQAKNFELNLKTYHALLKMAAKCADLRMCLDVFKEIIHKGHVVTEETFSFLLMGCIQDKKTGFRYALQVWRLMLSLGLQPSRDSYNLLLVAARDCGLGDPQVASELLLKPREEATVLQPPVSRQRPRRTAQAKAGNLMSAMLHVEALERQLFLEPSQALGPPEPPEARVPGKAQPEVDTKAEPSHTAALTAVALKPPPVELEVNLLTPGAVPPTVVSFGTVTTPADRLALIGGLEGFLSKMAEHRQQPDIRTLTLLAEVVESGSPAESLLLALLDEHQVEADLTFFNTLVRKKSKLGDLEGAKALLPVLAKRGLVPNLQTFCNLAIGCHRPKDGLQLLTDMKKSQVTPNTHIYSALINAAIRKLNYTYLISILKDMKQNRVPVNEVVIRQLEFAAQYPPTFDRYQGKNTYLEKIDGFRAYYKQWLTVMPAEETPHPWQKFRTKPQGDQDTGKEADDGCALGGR
UniProt A0A1S4EWW7, residues 22-255: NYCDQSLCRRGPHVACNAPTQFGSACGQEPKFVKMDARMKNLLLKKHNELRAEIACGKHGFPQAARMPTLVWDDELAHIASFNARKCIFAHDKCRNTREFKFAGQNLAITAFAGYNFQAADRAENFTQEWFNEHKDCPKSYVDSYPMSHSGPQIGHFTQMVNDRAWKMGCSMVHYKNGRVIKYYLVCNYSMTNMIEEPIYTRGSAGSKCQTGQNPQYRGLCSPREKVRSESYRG

Key:
[1] = biological target: human Beclin-1 (Myc tag) expressed in cells (human) (UniProt Q14457); test: co-IP; only the binder purified
[2] = biological target: PTCD1 (PPR-containing protein-1) expressed in 293T cells (human) (UniProt O75127); test: co-IP; only the binder purified

## Aedes aegypti venom allergen-1 (AaVA-1), recombinant, from Drosophila S2 cells (from UniProt A0A1S4EWW7 22-255)
[1]
  binding: no binding
[2]
  binding: no binding
